Results from PubChem BioAssay AID504444 (National Center for Advancing Translational Sciences (NCATS), 2011).
The campaign covered roughly 360,000 compounds. About 7,500 (2.1%) were called active. This list was built around the results that the source calls inconclusive (neither active nor inactive); the mix of calls is not that of the screen. Calls come from the whole dose curve; as a rule, active = well fitted inhibition curve with a large enough effect; inconclusive = small, poorly fitted or top-dose-only effect, or effect the other way; inactive = flat fitted curve, though single readings scatter. A potency beside an inconclusive call is a rough fit, not a confirmed value.
% is set by controls: 0 for no effect and ±100 for the full control effect; potency is the fitted concentration of half-maximal effect.

Experiment: Nrf2 qHTS screen for inhibitors; note: nearly all actives have a fitted effect of over 60% in size
Settings: A549 ARE-Fluc reporter, luciferase luminescence, 18-24 h; activity change, negative = inhibition: at 46 µM (top of the series)
Summary of the method: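 Two sequential reads on A549 ARE_Fluc cells exposed to compound for 18-24 h: a CellTiter-Fluor fluorescence read for viability, then a luciferase luminescence read for Nrf2/ARE activity.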
In the case of `CCC1CCCCN1S(=O)(=O)c1ccc(NC(=O)c2ccncc2)cc1` (centres undefined), the Potency is reported as active: 8.2 µM. For `CCCc1cc(C(=O)Nc2cccc(Cl)c2)no1`, the Potency was inconclusive: 14.6 µM [activator, partial curve]. For `O=C(O)CSCc1nc2ccccc2[nH]1`, the Potency was inconclusive: 4.11 µM [activator, partial curve, poor fit]. For `Cc1ccccc1CN1CCC(Oc2ccc(C(=O)N3CCCC3)cc2)CC1`, the “activity change, negative = inhibition” value was inactive: 5.3%. For `CCSc1nc(O)c(C(c2cccc(OC)c2)c2c(O)nc(SCC)[nH]c2=O)c(=O)[nH]1`, the Potency was inconclusive: 13 µM [activator, partial curve, poor fit]. In the case of `O=C(C[n+]1ccncc1)c1ccccc1`, the “activity change, negative = inhibition” value is reported as inactive: -1.34%. With `Cn1nc(-c2ccccc2F)c2cc(C(=O)N3CCN(c4ccc(F)cc4)CC3)sc21` the Potency was inconclusive: 25.9 µM [falling, single point]. In the case of `Cc1cc(N/N=C/c2ccc(Cl)cc2)nc(NCc2ccccc2)n1`, the Potency is reported as inconclusive: 14.6 µM [activator, partial curve, poor fit]. For `Cc1cccc(C(=O)Nc2cccnc2Cl)c1`, the Potency was inconclusive: 23.1 µM [activator, partial curve]. In the case of `O=C(N/N=C\c1ccc(Cl)cc1)C1=NOC2COC3(CCN(c4ccc([N+](=O)[O-])cc4)CC3)OCC12` (centres undefined), the Potency is reported as active: 2.59 µM. For `CCc1c(C)nc(SCC(=O)c2cccs2)c(C#N)c1C`, the Potency was inconclusive: 16.4 µM [activator, single point]. In the case of `Cc1cc(C)c(C)c(S(=O)(=O)Nc2ccc(C(=O)N3CCCC3)cc2)c1C`, the Potency is reported as inconclusive: 18.4 µM [falling, partial curve, poor fit]. In the case of `O=C(NCCNc1ccccc1[N+](=O)[O-])c1ccccc1F`, the “activity change, negative = inhibition” value is reported as inactive: 23.8%. In the case of `O=C(Nc1nc(-c2ccc(Cl)cc2)cs1)NC1CCCCC1`, the Potency is reported as inconclusive: 20.6 µM [falling, single point]. For `FC(F)(F)c1cnc(NNC(=S)Nc2ccc(Cl)cc2)c(Cl)c1`, the Potency was active: 11.6 µM. With `CCN(CC)c1ccc(NC(=O)c2cc(S(=O)(=O)N3CCc4ccccc43)cn2C)c(C)c1` the “activity change, negative = inhibition” value was inactive: -5.03%. In the case of `COc1ccc(S(=O)(=O)N2CCCC(C(=O)NCc3ccccc3)C2)cc1` (centres undefined), the Potency is reported as inconclusive: 29.1 µM [falling, single point]. With `O=C(C[n+]1cn(C(F)F)c2ccccc21)c1ccc(OC(F)F)cc1` the Potency was inconclusive: 20.6 µM [activator, partial curve, poor fit]. With `COc1ccc(C[C@H]2CN3C(=NC[C@H]3Cc3ccccc3)N2CCNC(=O)CCC2CCCCC2)cc1` the “activity change, negative = inhibition” value was inactive: 14.8%. For `O=C(CSc1nnc(SCc2cccc3ccccc23)s1)N/N=C/c1c[nH]c2ccccc12`, the Potency was inconclusive: 18.4 µM [falling, single point]. For `COc1cc(OC)cc(C(=O)NCCNC(=O)c2ccco2)c1`, the Potency was inconclusive: 6.51 µM [activator, single point]. With `CC1(C)Cc2c(sc(NC(=S)NC(=O)c3ccccc3)c2C(=O)O)CO1` the “activity change, negative = inhibition” value was inactive: 3.03%. With `CC1CCc2nc3ccccc3c(C(=O)OCC(=O)NC3CCS(=O)(=O)C3)c2C1` (centres undefined) the “activity change, negative = inhibition” value was inactive: 5.7%. With `COc1ccc(OC(=O)c2cnn(-c3ccccc3)c2C)cc1` the Potency was inconclusive: 1.46 µM [activator, full curve]. With `C#CC(C)(CC)NC(=O)c1cc2c(n(-c3ccc(Cl)cc3)c1=O)CC(C)(C)CC2=O` (centres undefined) the “activity change, negative = inhibition” value was inactive: -4.25%. For `CC(=O)N1Cc2ccccc2C(C)CC12CCCCC2` (centres undefined), the Potency was inconclusive: 29.1 µM [falling, single point]. For `O=c1[nH]c2ccccc2n1CCCSc1cnc2ccccc2n1`, the Potency was inconclusive: 20.6 µM [falling, single point]. For `CC(=O)N1CCc2cc(Br)cc(S(=O)(=O)N3CCN(c4cc(C)ccc4C)CC3)c21`, the activity change, negative = inhibition was inactive: 8.82% [at 9.27 µM]. For `CNC(=S)/N=C/NOCc1ccc(Cl)cc1Cl`, the Potency was inconclusive: 18.4 µM [falling, single point]. In the case of `c1ccc2c(Nc3nc(-c4ccncc4)nc4ccccc34)cccc2c1`, the Potency is reported as inconclusive: 18.4 µM [falling, partial curve]. With `CC(=O)NC(=S)Nc1ccc2oc(-c3cc(F)c(F)cc3Cl)nc2c1` the Potency was inconclusive: 2.59 µM [activator, partial curve]. For `CC(C)CCNC(=O)C1CCN(S(=O)(=O)c2ccc(-n3cnnn3)cc2)CC1`, the “activity change, negative = inhibition” value was inactive: -6.37%. In the case of `COc1ccc(/C(N)=N/OC(=O)c2ccco2)cc1OC`, the Potency is reported as inconclusive: 16.4 µM [activator, partial curve]. In the case of `Cc1ccc(-n2nc3ccc(N)cc3n2)cc1C`, the Potency is reported as inconclusive: 0.326 µM [activator, full curve]. In the case of `COc1ccc(C)cc1S(=O)(=O)N(C)CC(=O)Nc1ccc2c(c1)OCCO2`, the Potency is reported as inconclusive: 9.2 µM [falling, partial curve, poor fit]. For `COc1ccc(Cl)cc1NC(=O)c1cc2ccc3ccc(C)[nH]c3c2n1`, the Potency was inconclusive: 6.51 µM [activator, single point]. With `COC(=O)c1sccc1S(=O)(=O)Nc1ccc(C)cc1` the Potency was inconclusive: 29.1 µM [falling, single point]. In the case of `C=CCn1c(SCC(=O)Nc2sccc2C(N)=O)nc2sc(C)c(C)c2c1=O`, the Potency is reported as inconclusive: 29.1 µM [falling, single point]. With `O=C(/C=C1\NC2(CCCC2)Cc2ccccc21)C(=O)N/N=C/c1ccccc1O` the Potency was active: 14.6 µM. In the case of `COc1ccccc1N(C)S(=O)(=O)c1ccc(C(=O)OCC(=O)NCCC2=CCCCC2)cc1`, the Potency is reported as inconclusive: 7.31 µM [activator, partial curve]. In the case of `O=C(c1cc(-c2ccc(Cl)cc2)on1)N(Cc1cccc(F)c1)Cc1ccco1`, the “activity change, negative = inhibition” value is reported as inactive: -12.7%. In the case of `O=C(O)CC1Sc2ccccc2NC1=O` (centres undefined), the Potency is reported as inconclusive: 32.6 µM [activator, single point]. With `O=C(O)c1ccc(N/N=C/c2ccc(OC(=O)c3cccc(Cl)c3)cc2)cc1` the Potency was inconclusive: 14.6 µM [falling, partial curve, poor fit]. With `Cc1sc2nc(CN3CCCCC3)nc(Cl)c2c1C` the Potency was inconclusive: 6.51 µM [activator, full curve, poor fit].
